In all, about 1,600 compounds were measured (“plate-normalized OD600 growth (mean of duplicates)”: median about 0.31, lowest 2% from about 0.23 on). This is one part of the list.
System: Escherichia coli BW25113
Test: plate-normalized OD600 growth (mean of duplicates) (OD600 (normalized)); higher = more growth (less inhibition)
Conditions: 10 µM
Protocol: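 E. coli BW25113 in LB (100 µl, 96-well, no shaking) was exposed to 10 µM of each compound (here the ChemBridge subset of a ~30,000-member library) and grown at 37°C for 24 h or 15°C for 48 h, in duplicate. Growth was read as OD600 and the duplicate ODs were normalized across screening plates to correct plate-to-plate variation.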

Structure (SMILES) | plate-normalized OD600 growth (temperature: 15°C, 48 h) | plate-normalized OD600 growth (temperature: 37°C, 24 h)
O=C(c1ccc(Br)o1)N1CCN(c2ccc([N+](=O)[O-])cc2)CC1 | 0.262 | 0.622
Cc1ccc(NCC(O)COc2ccccc2)cc1C (centres undefined) | 0.254 | 0.638
CC(N=C1NC(C)(C)Cc2ccccc21)C(=O)O (centres undefined) | 0.253 | 0.628
NS(=O)(=O)c1cccc(S(=O)(=O)c2ccc(Cl)c(Cl)c2)c1 | 0.253 | 0.608
Cc1ccc(OCCCNC(C)(C)C)cc1 | 0.244 | 0.608
O=C(NC1CCN(Cc2ccccc2)CC1)c1ccccc1Br | 0.272 | 0.625
CC(C)NS(=O)(=O)c1cccc2cccnc12 | 0.257 | 0.621
CSc1nc(-c2ccccc2)nc(SC)c1C(C)=O | 0.251 | 0.607
Cc1nc2c(c3c1[nH]c1ccccc13)C(=O)CC(C)(C)C2 | 0.256 | 0.605
Nn1cnc2scc(-c3ccccc3)c2c1=O | 0.267 | 0.626
O=C(NC1CCCCC1)C1CC1c1ccccc1 (centres undefined) | 0.25 | 0.606
N#CC1=C(SCc2ccccc2)NC(=O)CC1c1ccc(O)cc1 (centres undefined) | 0.233 | 0.607
COc1c(Cl)cnn(-c2ccccc2)c1=O | 0.231 | 0.633
COCCOC(=O)Nc1nc2ccc(OC)cc2s1 | 0.236 | 0.604
O=[N+]([O-])c1ccc2[nH]c3c(c2c1)CCCC3NC1CCN(CCc2ccccc2)CC1 (centres undefined) | 0.249 | 0.578
O=C(c1cccs1)N1CCc2ccccc21 | 0.242 | 0.636
COc1ccc(O)c(CN2CCC(N3CCCCC3)CC2)c1 | 0.277 | 0.627
C=CCSc1nc(O)c(CC)c(=O)n1-c1ccccc1 | 0.233 | 0.62
COc1cc(Br)c(CN2CCCN(C)CC2)cc1OC | 0.268 | 0.604
N#CC1=C(SCC(N)=O)NC(=O)C(C#N)C12CCCCC2 (centres undefined) | 0.253 | 0.621
Cc1cccc(NS(=O)(=O)c2cccc(C(=O)Nc3ccccc3C)c2)c1 | 0.245 | 0.591
CN1CCCN(Cc2cccc([N+](=O)[O-])c2)CC1 | 0.22 | 0.627
CC(C)Cc1cc(-c2cccc(Br)c2)c(C#N)c(N)n1 | 0.236 | 0.615

Structure (SMILES) | plate-normalized OD600 growth (temperature: 15°C, 48 h) | plate-normalized OD600 growth (temperature: 37°C, 24 h)
CN1CCCC1CCNC1C2CC3CC(C2)CC1C3 (centres undefined) | 0.248 | 0.635
COc1cccc(C(=O)Nc2nc3ccc(Cl)cc3s2)c1 | 0.242 | 0.584
N#CSCCCCOc1ccccc1Cl | 0.251 | 0.605
O=C(Nc1ccc(F)cc1F)c1cccc(Cl)c1 | 0.245 | 0.6
COc1ccc([N+](=O)[O-])cc1NCc1ccccc1Br | 0.27 | 0.627
C=C(C)CN(CC)C1CCN(C(C)=O)CC1 | 0.226 | 0.627
O=S(=O)(NCCN1CCCC1)c1cccc2nsnc12 | 0.245 | 0.616
CCOC(=O)N1CCN(Cc2c(F)cccc2F)CC1 | 0.263 | 0.656
OC1CCN(Cc2c(Cl)cccc2Cl)CC1 | 0.257 | 0.629
CCN(CC)C(=O)C1CCCN(Cc2ccc(OC)c(C)c2)C1 (centres undefined) | 0.258 | 0.635
NCCCNc1ccc(Cl)cc1[N+](=O)[O-] | 0.248 | 0.62
Cc1ccc(C2C(C#N)=C(N)Oc3n[nH]c(C)c32)s1 (centres undefined) | 0.246 | 0.658
COc1ccccc1N1Cc2ccc(OC)c(OC)c2C1=O | 0.256 | 0.635
Fc1ccccc1N1CCN(Cc2ccco2)CC1 | 0.247 | 0.603
CC(C)(C)c1ccccc1OCCCCSC#N | 0.209 | 0.619
COc1ccc(CC(=O)Nc2ccccc2)cc1OC | 0.229 | 0.601
COc1ccc(-c2csc(N)n2)cc1Br | 0.26 | 0.647
O=C(Nc1cccc(O)c1)C(Cc1ccc([N+](=O)[O-])cc1)N1C(=O)c2ccccc2C1=O (centres undefined) | 0.254 | 0.637
Nc1nonc1C(=NCc1ccccc1)NO | 0.275 | 0.651
CC(=O)NCc1cccc(CNC(C)=O)n1 | 0.248 | 0.626
COc1ccc(CC(=O)Nc2cc(C)cc(C)c2)cc1 | 0.265 | 0.635
CC(=O)c1c(C(C)=O)c(C)n(-c2ccc(C)c(N)c2)c1C | 0.254 | 0.612
CC1CCCC(C)N1C(=O)c1ccc(Br)cc1 (centres undefined) | 0.25 | 0.617

Complete entries, quoted from the list.
O=C(c1ccc(Br)o1)N1CCN(c2ccc([N+](=O)[O-])cc2)CC1 in the list: plate-normalized OD600 growth (temperature: 15°C, 48 h): 0.262; plate-normalized OD600 growth (temperature: 37°C, 24 h): 0.622
COc1ccc([N+](=O)[O-])cc1NCc1ccccc1Br in the list: plate-normalized OD600 growth (temperature: 15°C, 48 h): 0.27; plate-normalized OD600 growth (temperature: 37°C, 24 h): 0.627

The results go on.

Structure (SMILES) | plate-normalized OD600 growth (temperature: 15°C, 48 h) | plate-normalized OD600 growth (temperature: 37°C, 24 h)
COc1cccc(OC)c1C(=O)Nc1ccccc1C | 0.246 | 0.627
CC1(C)CC(=O)C(C(N)=NC(=O)c2ccccc2)=C(O)C1 | 0.23 | 0.614
CC(c1ccccc1)N1CCC(=O)C2=C1CCCC2 (centres undefined) | 0.241 | 0.604
Cc1nn2c3ccccc3n(C)c2c1C=O | 0.236 | 0.62
C=CCSc1nc2c(cc1C#N)CCC2 | 0.25 | 0.607
N#CC1=C(N)NC(SCc2ccccc2)=C(C#N)C12CCCCC2 | 0.245 | 0.603
Cc1onc(-c2ccccc2Cl)c1C(=O)NCc1ccc2c(c1)OCO2 | 0.261 | 0.619
c1ccc(-c2nnc(N3CCOCC3)nc2-c2ccccc2)cc1 | 0.236 | 0.606
COc1ccc(S(=O)(=O)Nc2cc(C)ccn2)cc1 | 0.245 | 0.602
COc1ccc2[nH]c3c(c2c1)CCn1c-3nc2sc3c(c2c1=N)CCCC3 | 0.254 | 0.607
CCOc1ccc(NC(=O)c2cccnc2)cc1 | 0.271 | 0.623
Cc1nc2c(cnn2-c2ccccc2)c(=O)[nH]1 | 0.243 | 0.613
CCCc1noc2c1C(=O)CC(C)(C)C2 | 0.261 | 0.622
CSC1=C(C#N)C(c2ccc(OCc3ccccc3)cc2)CC(=O)N1 (centres undefined) | 0.243 | 0.628
Cc1cccc(C)c1N(CC(=O)O)S(C)(=O)=O | 0.243 | 0.616
O=c1[nH][nH]c(=O)c2cc([N+](=O)[O-])ccc12 | 0.258 | 0.634
O=C(NC1CCN(Cc2ccccc2)CC1)c1sc2ccccc2c1Cl | 0.243 | 0.598
CC(=O)c1c(C)n([O-])c2ccccc2[n+]1=O | 0.262 | 0.639
C=CCc1c(C)[nH]c2ccccc2c1=O | 0.24 | 0.601
c1ccc(CCCN2CCOCC2)cc1 | 0.251 | 0.615
CC(=O)Nc1cccc(NC(=O)Nc2cccc(Cl)c2)c1 | 0.236 | 0.585
Cc1ncn(C23CC4CC(CC(C4)C2)C3)n1 | 0.242 | 0.622
OC1CCN(Cc2ccc(Br)s2)CC1 | 0.251 | 0.603

Structure (SMILES) | plate-normalized OD600 growth (temperature: 15°C, 48 h) | plate-normalized OD600 growth (temperature: 37°C, 24 h)
CN(C)CCN(C)Cc1ccccc1Br | 0.249 | 0.611
COc1ccc(CN2CCN(c3ccc([N+](=O)[O-])cc3)CC2)c(OC)c1 | 0.252 | 0.593
CN1CCN(C(=O)CC(c2ccccc2)c2ccccc2)CC1 | 0.253 | 0.62
O=c1[nH]c(/C=C/c2ccccc2F)nc2ccccc12 | 0.243 | 0.603
Cc1cc(C)c(OCCN2CCCCC2)c(C)c1 | 0.254 | 0.638
CC1CCC(N2CCN(c3ncccn3)CC2)C1 (centres undefined) | 0.234 | 0.61
COc1ccccc1-c1nc(-c2ccccc2Cl)no1 | 0.256 | 0.648
COc1ccc(CCN2C(=O)CN(Cc3ccccc3)CC2=O)cc1OC | 0.263 | 0.635
Cc1cc(Nc2ccc(O)cc2)c2cccc(C)c2n1 | 0.246 | 0.64
CC1=C(C#N)C(c2cccnc2)C2=C(CC(c3ccc(Cl)cc3)CC2=O)N1 (centres undefined) | 0.225 | 0.623
O=C(Nc1c(Cl)cccc1Cl)c1cccs1 | 0.243 | 0.609
CC(C)(C)c1cc(C(C)(C)C)cc(S(N)(=O)=O)c1 | 0.256 | 0.623
CC1(C)Cc2ccccc2C(=NCCC(=O)O)N1 | 0.248 | 0.61
Cc1ccc2c(N)c(C(N)=O)sc2n1 | 0.241 | 0.615
Cc1ccc(NC(=O)c2cc(-c3ccccc3)n[nH]2)cc1 | 0.251 | 0.603
c1ccc(CN2CCc3ccccc3C2)nc1 | 0.242 | 0.584
CC(C)(C)S(=O)(=O)c1ccc(S(=O)(=O)C(C)(C)C)s1 | 0.259 | 0.617
COc1cc(OC)c(CN2CCN(c3ccc([N+](=O)[O-])cc3)CC2)cc1Br | 0.234 | 0.599
COc1ccc(-c2c(C#N)c(N)nc3c2CCC3)cc1 | 0.248 | 0.639
Cc1cc(NC(=O)CN(c2ccccc2F)S(C)(=O)=O)ccc1Br | 0.241 | 0.588
C1CCCC(NCCN2CCCCC2)CCC1 | 0.234 | 0.588
CCN(CC)C(=O)c1ccc(C(O)C(Cl)(Cl)Cl)o1 (centres undefined) | 0.233 | 0.613
O=[N+]([O-])c1ccc(CN2CCCCCCC2)cc1 | 0.255 | 0.607

Structure (SMILES) | plate-normalized OD600 growth (temperature: 15°C, 48 h) | plate-normalized OD600 growth (temperature: 37°C, 24 h)
COc1ccccc1C=C(C#N)c1nc(-c2ccc3c(c2)OCO3)cs1 | 0.231 | 0.598
CCCSc1nc(C)cc(COC)c1C#N | 0.229 | 0.637
CCOc1cc(/C=C(\C#N)c2nc(-c3ccc(OC)cc3)cs2)ccc1O | 0.262 | 0.615
CSc1ccc(CN(C)C2CCN(C)CC2)cc1 | 0.255 | 0.621
COc1cc(C(=O)n2c(C)nc3ccccc32)cc(OC)c1OC | 0.246 | 0.616
O=C(COc1ccccc1)Nc1ccccc1Cl | 0.279 | 0.622
O=C(c1ccc(-c2ccccc2)cc1)N1CCCC1 | 0.241 | 0.596
CC(=O)Nc1ccc(NCCC#N)cc1 | 0.231 | 0.631
Cc1nc(C)c(-c2cc(C)c3c(C)nc(C)nc3n2)c(N)n1 | 0.252 | 0.617
CCOc1ccc(Br)cc1/C=C(\C#N)c1nc2ccccc2[nH]1 | 0.255 | 0.657
Nc1ccc(Cl)cc1SCC(=O)O | 0.242 | 0.599
COC1C2C3CC4C5C3C1C5C(O)(c1ccccc1)C42 (centres undefined) | 0.247 | 0.611
O=C(CSC1CC(=O)N(c2ccc(F)cc2)C1=O)Nc1ccc(Cl)cc1 (centres undefined) | 0.25 | 0.618
CCCC(=O)N(c1ccccc1)C1CC(C)Nc2ccccc21 (centres undefined) | 0.228 | 0.628
N#CC1=C(N)SC(N)=C(C#N)C1c1cccnc1 | 0.26 | 0.62
Cc1ccccc1C(=O)N(C)Cc1ccccc1 | 0.256 | 0.623
c1ccc(N2CCN(C3CC4CCC3C4)CC2)cc1 (centres undefined) | 0.256 | 0.618
COc1cc(C(=O)N2CCCCC2)cc(OC)c1OC | 0.254 | 0.618
COc1ccccc1N1CCN(CCC(=O)NN)CC1 | 0.254 | 0.611
NC(=O)CCC(=O)NC12CC3CC(CC(C3)C1)C2 | 0.227 | 0.599

Source: the supplement of paper PMC4371806
